The list is a part of this screen's results and no random one: it gathers some chemical classes. Other doses and runs of a compound may be missing. T/C: endpoint of the treated group in % of that of the vehicle group. Some entries give survivors of the animals treated and no T/C: the source holds a T/C of zero for them, seemingly a mark for toxic or unscored doses. Some doses without a T/C left all or most animals alive at the check, yet need not have been tolerated: survival well below the control is almost never listed, so the zero probably covers shortened survival too. Survivors were counted at the toxicity check, usually on the fifth day, unless a day is given; later deaths do not show. Schedules are NCI's codes, taken here to give the interval after Q, in days (D) or hours (H), and the number of doses after X. Some schedules carry Z or #; the key to these is not given. For survival time, this PubChem deposit counts one and a half times the control or more as active, and values a quarter to a half above the control carry no call in these data; other NCI protocols may use other cut-offs. Some T/C values carry the count of animals alive at the toxicity check (mostly the fifth day); without a count or a note in brackets, all were alive then. Some entries hold several experiments; the results are listed from low to high.

The test relates to L1210 leukemia ip in BDF1 mice, survival T/C. Nature of the test: NCI In Vivo Anticancer Drug Screen. Data for tumor model L1210 Leukemia (intraperitoneal) in B6D2F1 (BDF1) mice. The conditions noted are these: T/C endpoint: mean survival time, higher T/C = longer survival.
[1] abbreviates: dose: 0.6 mg/kg/injection, schedule: Q01DX Z (ip), vehicle: methylcellulose (MC).

As to `NC(Cc1ccc(N(CCCl)CCCl)c(Cl)c1)C(=O)O` (centres undefined), the T/C is 124 % of control (dose: 0.38 mg/kg/injection, schedule: Q01DX Z (ip), vehicle: methylcellulose (MC)); 127 % of control under setting [1]; 131 % of control (dose: 0.75 mg/kg/injection, schedule: Q01DX Z (ip), vehicle: methylcellulose (MC)); 111 [4 of 6 alive] and 144 % of control [5 of 6 alive] (dose: 0.9 mg/kg/injection, schedule: Q01DX Z (ip), vehicle: methylcellulose (MC)); 111 and 145 % of control [5 of 6 alive] (dose: 1.3 mg/kg/injection, schedule: Q01DX Z (ip), vehicle: methylcellulose (MC)); 131 % of control (dose: 1.5 mg/kg/injection, schedule: Q01DX Z (ip), vehicle: methylcellulose (MC)). For the same compound, the T/C reads like this: (dose: 2.0 mg/kg/injection, schedule: Q01DX Z (ip), vehicle: methylcellulose (MC)) 103 [4 of 6 alive] and 182 % of control; (dose: 3.0 mg/kg/injection, schedule: Q01DX Z (ip), vehicle: methylcellulose (MC)) 154 % of control. For the same compound, the survivor count is, setting by setting: under setting [1], 2 of 6; (dose: 6.0 mg/kg/injection, schedule: Q01DX Z (ip), vehicle: methylcellulose (MC)) 5 of 6.
Regarding `O=C(c1cc2ccccc2oc1=O)N(CCCl)CCCl`, the T/C runs as follows: (dose: 50.0 mg/kg/injection, schedule: Q01DX009 (ip), vehicle: Klucel (hydroxypropylcellulose) (HPC)) 111 % of control; (dose: 100.0 mg/kg/injection, schedule: Q01DX009 (ip), vehicle: Klucel (hydroxypropylcellulose) (HPC)) 96 % of control; (dose: 200.0 mg/kg/injection, schedule: Q01DX009 (ip), vehicle: Klucel (hydroxypropylcellulose) (HPC)) 93 % of control [2 of 3 alive].
As for `O=C(Nc1ncc([N+](=O)[O-])s1)c1cc([N+](=O)[O-])cc([N+](=O)[O-])c1`, the T/C is 87 % of control (dose: 5.0 mg/kg/injection, schedule: Q01DX009 (ip), vehicle: Klucel (hydroxypropylcellulose) (HPC)); 115 % of control (dose: 5.0 mg/kg/injection, schedule: Q04DX003 (ip), vehicle: Klucel (hydroxypropylcellulose) (HPC)); 90 % of control (dose: 10.0 mg/kg/injection, schedule: Q01DX009 (ip), vehicle: Klucel (hydroxypropylcellulose) (HPC)); 103 % of control (dose: 10.0 mg/kg/injection, schedule: Q04DX003 (ip), vehicle: Klucel (hydroxypropylcellulose) (HPC)); 89 % of control (dose: 20.0 mg/kg/injection, schedule: Q01DX009 (ip), vehicle: Klucel (hydroxypropylcellulose) (HPC)); 101 % of control (dose: 20.0 mg/kg/injection, schedule: Q04DX003 (ip), vehicle: Klucel (hydroxypropylcellulose) (HPC)).

(Values after PubChem BioAssay AID248 (DTP/NCI, 2004).)
